Assay results reported in article doi:10.1101/2020.02.21.960088.
No constants are given. Whether binding was seen depends on the method and setting. In cells and extracts the contact can be indirect. Some results given as binding are weak or reduced against the parent protein; the word gives no strength.

The chains behind the UniProt entries cited, without tags or fusion partners. Where a name states a change or a piece, a line headed by the entry shows the natural chain unless it says otherwise.
UniProt O00487: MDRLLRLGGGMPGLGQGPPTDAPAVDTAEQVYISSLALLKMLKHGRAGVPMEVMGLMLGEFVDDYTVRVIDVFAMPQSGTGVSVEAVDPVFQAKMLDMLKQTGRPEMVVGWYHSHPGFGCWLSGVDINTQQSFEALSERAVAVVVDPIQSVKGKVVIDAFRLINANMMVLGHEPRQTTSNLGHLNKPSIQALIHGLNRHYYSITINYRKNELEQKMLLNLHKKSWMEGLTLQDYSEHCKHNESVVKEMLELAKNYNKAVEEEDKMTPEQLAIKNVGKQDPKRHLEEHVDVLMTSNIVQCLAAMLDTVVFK
UniProt Q16186: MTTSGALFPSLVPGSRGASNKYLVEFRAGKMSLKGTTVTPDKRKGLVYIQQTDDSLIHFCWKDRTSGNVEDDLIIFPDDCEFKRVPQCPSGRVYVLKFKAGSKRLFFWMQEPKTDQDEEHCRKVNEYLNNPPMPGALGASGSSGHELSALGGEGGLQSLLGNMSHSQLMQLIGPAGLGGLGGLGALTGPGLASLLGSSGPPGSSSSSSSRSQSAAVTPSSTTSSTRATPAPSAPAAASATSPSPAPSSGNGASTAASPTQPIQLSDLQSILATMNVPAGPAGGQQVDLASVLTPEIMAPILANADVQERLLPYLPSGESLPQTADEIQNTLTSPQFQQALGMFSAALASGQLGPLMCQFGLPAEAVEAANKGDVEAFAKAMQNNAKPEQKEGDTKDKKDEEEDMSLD
UniProt Q9Y5K5: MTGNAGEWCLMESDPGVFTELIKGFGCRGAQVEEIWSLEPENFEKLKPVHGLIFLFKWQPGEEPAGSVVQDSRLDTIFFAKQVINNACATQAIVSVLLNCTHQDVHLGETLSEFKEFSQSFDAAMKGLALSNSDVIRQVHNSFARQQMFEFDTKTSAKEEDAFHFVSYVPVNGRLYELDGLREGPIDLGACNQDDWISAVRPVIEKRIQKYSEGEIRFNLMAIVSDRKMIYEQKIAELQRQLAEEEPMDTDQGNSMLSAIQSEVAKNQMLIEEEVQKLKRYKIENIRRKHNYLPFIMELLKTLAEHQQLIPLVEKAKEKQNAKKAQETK

Tests used:
RPN11-HTBH (human) [1] = biological target: RPN11-HTBH (human) (UniProt O00487); experiment: pull-down
RPN11-HTBH (human) [2] = biological target: RPN11-HTBH (human) (UniProt O00487); experiment: pull-down; remark: listed apart in the source
RPN11-HTBH (human) [3] = biological target: RPN11-HTBH (human) (UniProt O00487); experiment: pull-down + native gel or EMSA

binding (RPN11-HTBH (human) [1]) | binding (RPN11-HTBH (human) [2]) | binding (RPN11-HTBH (human) [3]) | Substance
binds | binds | – | RPN13 (endogenous) (from UniProt Q16186 1-407)
– | – | binds | UCH37 C88A•RPN13 complex (from UniProt Q9Y5K5;Q16186)
– | – | binds | UCH37•RPN13 complex (from UniProt Q9Y5K5;Q16186)
